About 9,100 (2.5%) of roughly 360,000 compounds were called active. Inconclusive means that the source gave no clear call. Such entries were picked first, then a sample of the others. Cut-off read from the data, not from the text of the source: active = max response below about -50%; inconclusive = no clear call, values can overlap the other calls; inactive = above that.
target: D(3) dopamine receptor (Homo sapiens) (UniProt P35462); test: qHTS of D3 Dopamine Receptor Antagonist: qHTS; conditions: D3R cells, DiscoveRx beta-arrestin luminescence, antagonist mode; stronger effect = lower value
Procedure, shortened: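 Cells expressing the human receptor were seeded at 1500 cells/well, incubated overnight at 37 degrees C in 5% CO2, then exposed to library compounds with dopamine controls for 90 minutes at 37 degrees C before luminescent detection.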
% is set by controls: 0 for no effect and ±100 for the full control effect.

Sequences of proteins named here, by UniProt entry; tags and fusion partners are left off.
UniProt P35462, whole entry, looked up: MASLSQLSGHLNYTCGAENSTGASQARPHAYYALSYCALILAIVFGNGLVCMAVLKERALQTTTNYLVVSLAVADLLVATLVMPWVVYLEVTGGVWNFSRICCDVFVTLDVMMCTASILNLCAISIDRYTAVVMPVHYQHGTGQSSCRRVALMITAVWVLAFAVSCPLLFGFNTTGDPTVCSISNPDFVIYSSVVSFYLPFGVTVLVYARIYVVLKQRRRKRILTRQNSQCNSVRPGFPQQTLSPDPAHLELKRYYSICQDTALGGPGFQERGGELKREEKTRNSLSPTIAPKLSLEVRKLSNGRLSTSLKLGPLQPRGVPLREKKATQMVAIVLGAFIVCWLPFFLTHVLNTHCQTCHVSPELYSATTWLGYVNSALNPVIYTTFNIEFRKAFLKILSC

Row | Compound | max response, negative = inhibition
1 | NNC(=O)CSc1nnc(-c2ccccc2)n1-c1ccccc1 | inconclusive: -30%
2 | COc1ccc(/C=C/C(=O)c2ccc3c(c2)OCCO3)cc1[N+](=O)[O-] | active: -51.1%
3 | CC1CCN(c2nc(-c3ccccc3)c(C#N)c(=O)[nH]2)CC1 | inconclusive: -35.3%
4 | O=C(NCCN1CCOCC1)C(=O)c1c[nH]c2ccccc12 | inactive: 7.7%
5 | Cc1nnc(NC(=O)CC(CN(C)S(=O)(=O)c2ccccc2)c2ccccc2)s1 (centres undefined) | inconclusive: -38.6%
6 | N#CC1c2ccccc2C=CN1C(=O)N(c1ccccc1)c1ccccc1 (centres undefined) | inconclusive: -46.4%
7 | CC1(Oc2cccc(F)c2)CCN(Cc2ccc(-c3ccccc3)o2)C1 (centres undefined) | inconclusive: -39.8%
8 | COc1ccc(/C=C/C(=O)c2ccc([N+](=O)[O-])o2)cc1 | active: -75.3%
9 | CN(C(=O)c1ccncc1)c1nnc(-c2cccnc2)s1 | inactive: 10.7%
10 | COc1ccc(NC(=O)C2CCN(Cc3cnn(-c4ccccc4)c3-n3cccc3)CC2)cc1OC | active: -73.3%
11 | O=C(Cn1c(=O)oc2cc(S(=O)(=O)N3CCCCC3)ccc21)N1CCc2ccccc21 | inconclusive: -30.3%
12 | N=C(N)SCC1=CCS(=O)(=O)C1 | inactive: -3.02%
13 | CCOC(=O)C(=C1Nc2ccccc2N1)n1c(-c2ccco2)nc2ccccc21 | active: -54.2%
14 | Cc1onc(-c2ccccc2)c1-c1n[nH]c(=S)n1-c1ccccc1 | inconclusive: -39.1%
15 | CC(=O)c1c(N2CCN(Cc3ccccc3)CC2)nc(=S)n(Cc2ccccc2)c1C | inactive: 17.6%
16 | C[C@@H]1O[C@@H](O[C@@H]2[C@@H](O)[C@H](OCCc3ccc(O)c(O)c3)O[C@H](CO)[C@H]2OC(=O)/C=C/c2ccc(O)c(O)c2)[C@H](O)[C@H](O)[C@H]1O | inconclusive: -31%
17 | COC(=O)c1ccsc1NC(=O)CS(=O)(=O)c1ccccc1 | active: -102%
18 | CCOc1cccc(OCCCCN2CCCCC2)c1 | active: -65.8%
19 | Cc1nn(C)cc1CN(C)C(=O)C1CCC(=O)N(CCc2cccc(F)c2)C1 (centres undefined) | inactive: -18.6%
20 | CC12COC3(P(=O)(c4ccccc4)c4ccccc4)CC1CCC23CP(=O)(c1ccccc1)c1ccccc1 (centres undefined) | inconclusive: -37.7%
21 | Cc1ccccc1N1CCN(Cc2cccc(C(=O)O)c2)CC1 | inconclusive: -38.3%
22 | CCN1CCN(Cc2ccc(NC(=O)c3ccc(C)c(NC(=O)c4cccc(-c5cn[nH]c(=O)c5)c4)c3)cc2C(F)(F)F)CC1 | inactive: -9.13%

Exported as tab-separated lines: entries from further up.
Row	Compound	max response, negative = inhibition
4	O=C(NCCN1CCOCC1)C(=O)c1c[nH]c2ccccc12	inactive: 7.7%
20	CC12COC3(P(=O)(c4ccccc4)c4ccccc4)CC1CCC23CP(=O)(c1ccccc1)c1ccccc1 (centres undefined)	inconclusive: -37.7%

Remaining list, next part.

Row | Compound | max response, negative = inhibition
23 | CCOC(=O)c1ccc(N2C(=O)C(O)=C(C(C)=O)C2c2ccc(O)c(OC)c2)cc1 (centres undefined) | inconclusive: -47.7%
24 | Cc1ccc(-c2ccc(C(=O)Nc3ccccc3)o2)c2ccccc12 | inactive: 7.96%
25 | CCS(=O)(=O)c1nc(S(=O)(=O)c2ccc(C)cc2)c(N2CCCCCC2)s1 | inactive: 21.4%
26 | CCN(CC(=O)Nc1ccccc1C(=O)OC)S(=O)(=O)c1ccccc1 | inconclusive: -39.2%
27 | CC(C)CCN(C(=O)CCCSc1nc2ccccc2[nH]1)c1c(N)n(Cc2ccccc2)c(=O)[nH]c1=O | inactive: 7.65%
28 | Cc1onc(NC(=O)CSCC(=O)O)c1Br | inconclusive: -31.5%
29 | CCOC(=O)C1=C(C)NC2=C(C(=O)C(C(=O)OCC)C(c3ccccc3OC)C2)C1c1ccccn1 (centres undefined) | inconclusive: -31.9%
30 | Cc1ccc(S(=O)(=O)NCC(=O)NCC(=O)OC(C(=O)NC(N)=O)C(C)C)cc1C (centres undefined) | inactive: 12.8%
31 | C#CC(CC)(CC)NC(=S)Nc1cccc(C(C)=O)c1 | inconclusive: -48.1%
32 | CCCc1nnc(NC(=O)c2nc(S(=O)(=O)Cc3cccc(C)c3)ncc2Cl)s1 | active: -67.7%
33 | CSCCC(NC(=O)c1ccc([N+](=O)[O-])cc1Cl)C(=O)OCC(=O)NCCCc1ccccc1 (centres undefined) | inconclusive: -40.5%
34 | Cc1cccc(NC(=O)c2ncn3c2C(=O)NC[C@@H]3C)c1 | inactive: 28.2%
35 | COc1ccc(Oc2ccc(/C=C/C(=O)c3cccc(OC)c3)cc2[N+](=O)[O-])cc1 | active: -56.1%
36 | CC1(C)CC(O)(CNCc2ccc3c(c2)OCO3)CCO1 (centres undefined) | inconclusive: -41.6%
37 | COC(=O)c1ccc(N=C2S/C(=C\c3cc(C)n(-c4cccnc4)c3C)C(=O)N2C)cc1 | inconclusive: -30.8%
38 | CCc1ccccc1OCCCN1CCCC1 | inconclusive: -49%
39 | COc1ccccc1/C=C/C(=O)c1cc(Br)ccc1OC(=O)c1ccco1 | active: -56.5%
40 | CC(C)(CO)CNc1ccn2nccc2n1 | inconclusive: -31.2%
41 | Cc1ccc(C)c(OCC(O)CN2CCc3ccccc3C2)c1C (centres undefined) | active: -115%
42 | O=C(Nc1cccnc1)c1cc(F)cc(F)c1 | inconclusive: -37.4%
43 | O=C(Nc1ccc(F)cc1F)Nc1csc2ccccc12 | inactive: 10.8%
44 | CCOc1cccc2c1OC1(C)CC2NC(=O)N1c1cccc(F)c1 (centres undefined) | active: -50.6%

Reference: PubChem BioAssay AID652054 (National Center for Advancing Translational Sciences (NCATS), 2013)
